Assay results from patent publication US20090105343A1, “Cancer Therapy And Medicaments Therefor” (The University of Birmingham, priority 2004, published 2009).

What was measured:
Format in all cases: cell-based
RT-4 = test: Proliferation assay (ATP bioluminescence), RT-4 bladder cancer cells; conditions: Homo sapiens; RT-4 cells, 96 h; read-out: Estimated dose required to inhibit bladder cancer cell proliferation by 50% (ED50)
Protocol: (§1) The action of individual agents alone and in combination was examined using a bioluminescent technique to measure changes in cellular ATP (ViaLight HS, LumiTech, Nottingham, U.K.) with previously optimised conditions according to the manufacturer's instructions (Rashid, S. F. et al. Supra). Briefly, cells were plated in 96 well white-walled tissue culture-treated plates (Fisher Scientific Ltd. Loughborough, U.K.) (cancer cell lines at 2×10^3 cells/well; PrEC at 3.5×10^3 cells/well). Growth media containing varying concentrations of SAHA, TSA, 1α,25(OH)2D3, nuclear receptor ligands were added to a final volume of 100 μl/well and plates were incubated for 96 h, with re-dosing after 48 h. After the incubation period, 100 μl of nucleotide releasing reagent was added to each well and cells were left for 30 minutes at room temperature. Liberated ATP was quantitated by adding 20 μl of ATP monitoring reagent (containing luciferin and luciferase) and measuring luminescence with a microplate luminometer (Berthold Detection Systems, Fisher Scientific Ltd.). ATP levels were recorded in relative luciferase units and growth inhibition was expressed as a percentage of control.

HT-1376 = test: Proliferation assay (ATP bioluminescence), HT-1376 bladder cancer cells; conditions: Homo sapiens; HT-1376 cells, 96 h; read-out: Estimated dose required to inhibit bladder cancer cell proliferation by 50% (ED50)
Protocol: as §1

RT-112 = test: Proliferation assay (ATP bioluminescence), RT-112 bladder cancer cells; conditions: Homo sapiens; RT-112 cells, 96 h; read-out: Estimated dose required to inhibit bladder cancer cell proliferation by 50% (ED50)
Protocol: as §1

EJ-28 = test: Proliferation assay (ATP bioluminescence), EJ-28 bladder cancer cells; conditions: Homo sapiens; EJ-28 cells, 96 h; read-out: Estimated dose required to inhibit bladder cancer cell proliferation by 50% (ED50)
Protocol: as §1

[1] = system: prostate cancer cell lines; test: Proliferation assay (ATP bioluminescence), prostate cancer cell lines, single agents and combinations
Protocol: as §1
The interactions of two compounds were assessed by measuring the mean of either the nuclear receptor ligand or the HDAC inhibitor acting alone or in combination. […]

SMILES: O=C(CCCCCCC(=O)Nc1ccccc1)NO [SAHA, Suberoylanilide hydroxamic acid]
- EC50 (RT-4): 2000 nM
- EC50 (HT-1376): 1000 nM
- EC50 (RT-112): 1000 nM
- EC50 (EJ-28): 2000 nM
- inhibition at 0.5 µM ([1]; 0.5 μM): ~25%
- EC50 ([1]; common prostate cancer cell lines, SAHA alone, read-out: ED50, inhibition of proliferation): ~1000 nM
